Test results: PubChem BioAssay AID1508600 (Functional Genomics Laboratory (NCATS/FGL), 2020)
Out of some 53,000 sequences screened, about 3,700 (7%) were called active.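 The calls were made as follows: active = gene knockdowns whose robust z-score for IL-1 alpha signal is at least 2 or at most -2, so actives lie on both sides; inactive = the rest.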 The list shows a part of the results.

Experiment: Components of the Cytosolic LPS Sensing Pathway: Gene Identification via Genome-wide siRNA Screen;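 also: robust z of the log signal after scaling to non-targeting control siRNA wells of the plate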
Conditions: RAW264.7 macrophages, IL-1a HTRF, actives lie on both sides, screened at 100 nM (by protocol), cells primed 5 h with Pam3CSK4 first
In short: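 Mouse macrophage line RAW264.7 is transfected with siRNA (100 nM final), grown 48h, primed with TLR ligand Pam3CSK4 5 h and given intracellular LipidA 24 h. IL-1a in supernatant is read by HTRF and viability by luminescence.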
In the case of GGUUCCUCUCAAAAUUCAATT against Gprc6a, the z-score is reported as active: 3.13.
With GGAGAAGAGAGGUUGGACCTT against Gal the z-score was inactive: -0.286.
For GGUACUCCCUAAAUCUAAGTT against Zbtb8b, the z-score was inactive: 0.95.
With GGUAUGAUGGGAAAUUUUUTT against Tmod2 the z-score was inactive: 1.07.
For GGAUAUUCCCAAUUACAAGTT against Plxna3, the z-score was inactive: -0.469.
With “CGGCUUAAUGUUCUACUUATT against A930024E05Rik” the z-score was inactive: 0.264.
For GGCCUGCUUUGUUGUAGUUTT against Olfr830, the z-score was inactive: 0.618.
In the case of GCAGUGAUAGCUUCAAUCUTT against Oasl2, the z-score is reported as inactive: 0.87.
With CCCAGAGUGAUUACUUCAGTT against Klhl15 the z-score was inactive: 0.497.
In the case of GGCCUCCAGUGGAUAAUAGTT against Lpgat1, the z-score is reported as inactive: -0.415.
In the case of GGAAAUCUCAGGUGAGGUCTT against Clcc1, the z-score is reported as inactive: -0.127.
For GCUUGUUCCGGGAAUUAUUTT against Ergic2, the z-score was inactive: 0.443.
With CCCUUUCUAGAAAGUCAGUTT against Spata17 the z-score was inactive: -1.85.
In the case of GGACGGAAAGCUCAUCAUUTT against Gnb2, the z-score is reported as inactive: 1.67.
With “GGACCACUAAUUUCAAUGCTT against A730089K16Rik” the z-score was inactive: 1.04.
With GCCCGCUCUCGGAUUUUGATT against Htr1b the z-score was inactive: 1.5.
For CCUUAUGUCUACAAUCAAATT against Plac1, the z-score was inactive: -0.043.
In the case of GGAACAAAACAAAUAGCUATT against Vstm2a, the z-score is reported as inactive: 1.79.
For GGCUACUGGAGCAAGUUUATT against Apoc3, the z-score was active: 2.48.
For GGGUCCUAAAAAUUCAAUUTT against Decr2, the z-score was inactive: -0.106.
With CCUUCCUCGUGAUUCGCUATT against Lman2l the z-score was inactive: -0.461.
In the case of GGUGCAGUUUCUCCUCUUUTT against Pla1a, the z-score is reported as active: 2.09.
With CCUUUACCAAUGUUGGCCCTT against Svs1 the z-score was inactive: -0.212.
For GGUUUUGUGCCUUAACAGUTT against Abcc4, the z-score was inactive: -0.222.
With CGUGCUUCGAUUGUAGUUCTT against Zfp607b the z-score was inactive: -0.0328.
With GGUGAUGGUGUCCUAUAAATT against Hspa1l the z-score was inactive: -0.134.
For GGCCAGAAUAAGUUAAAUGTT against Cenpl, the z-score was inactive: -0.62.
For GGAGCUUGACAUUAAGGACTT against Erc2, the z-score was inactive: 0.809.
For GCAGAUUUGACAUGGAAAATT against Zp2, the z-score was inactive: 0.301.
With GGCUGAUUAUAAACAUGACTT against Nrap the z-score was inactive: 0.131.
In the case of GGUGACUCUACAAGCCUUUTT against Elof1, the z-score is reported as inactive: -1.38.
In the case of GCAGACAACUAGACAUACATT against Selenok, the z-score is reported as inactive: -0.42.
For CCGCUACCUUUGAACGAAUTT against Ren1, the z-score was inactive: 1.48.
With GGACCAGACAGGAAGUAUUTT against Snx20 the z-score was active: 2.3.
With GGAGAAGAGAGUAUUUAAUTT against Dus4l the z-score was inactive: 0.546.
With CCCUGUGAAAGUGUCAUAUTT against Pigq the z-score was inactive: 1.28.
For CCACAGAACAAUUUUCACATT against Rnase11, the z-score was inactive: -1.4.
With GCUAUUGUAGAGAGCUGAATT against Sccpdh the z-score was inactive: 0.107.
For GGACCCUGAACUACAACCUTT against Olfr860, the z-score was inactive: 0.473.
With GCCAGAUAUCUCACAGACATT against Ppil2 the z-score was inactive: -1.13.
In the case of GGGCAUUCAUGAAGGUAUUTT against Olfr165, the z-score is reported as inactive: -1.13.
With GUCACAGAAAGCUUAGUCCTT against Olfr427 the z-score was active: -2.93.
For GGAGUCUCCCAAAUGAAGATT against Son, the z-score was active: -2.84.
For GGUGAAAAGCAAUCCUCAGTT against Prss27, the z-score was inactive: -1.71.
For GAACUGGUCCUACAAUGAATT against Tmem150a, the z-score was inactive: 0.399.
For GCCGGUUUCAGUUAAAGAGTT against Pccb, the z-score was inactive: 0.837.
For CGAGCUCAGGUGAGAAAUUTT against Pfpl, the z-score was inactive: 0.924.
With GAAAAUGGUAAUCUAGGCATT against Siah1b the z-score was inactive: -0.992.
For GGUAAUGCCACAUUGAUGGTT against Upk2, the z-score was inactive: -0.698.
With GGAUAUGAAGCCUUCAUGGTT against Slc5a1 the z-score was inactive: -0.645.
In the case of CGCCUAGUUAAGGAAGACATT against Mcam, the z-score is reported as inactive: -0.76.
In the case of GGGAGAAAUCCAGAGGAGATT against Clec7a, the z-score is reported as inactive: 0.032.
In the case of GCAGUUAUGCCAGCUAUACTT against Hao2, the z-score is reported as inactive: -0.341.
For GGAUCUGAAGCUGAUUACATT against Clca2, the z-score was active: 2.47.
In the case of GGGAUAUCAGUAUUUCUCATT against Vipas39, the z-score is reported as inactive: -0.0383.
For GGUGAACGGUGAGAAUGUGTT against Slc9a3r1, the z-score was inactive: -1.43.
With GGAGUUCUACAAUCAAACATT against Slc2a1 the z-score was inactive: 1.22.
With CCGGUACCUUGCUAUGAAGTT against Fgf2 the z-score was inactive: 0.89.
With GGGUCUAAAUGACUUCUCATT against Mapk1ip1 the z-score was inactive: -1.59.
In the case of GGAGUAUGGGACCAGAAUATT against Tarbp2, the z-score is reported as inactive: 1.87.
With GCAAUUUGUAUGACGGUCUTT against Olfr1240 the z-score was inactive: 1.33.
In the case of GCAGGGAUUUCUCGAAUGATT against Pgm2, the z-score is reported as inactive: 1.18.
With GGAGUUUGCCAGUGAAUUUTT against Ptpn22 the z-score was inactive: -0.603.
With GCAGAGCUUACCACAGACUTT against Inppl1 the z-score was inactive: -0.632.
In the case of GCGUGAACGGAUAAAAAAUTT against Figla, the z-score is reported as inactive: 1.09.
With GGAUGUCUGUCUCAAUUCUTT against Olfr1012 the z-score was inactive: 1.28.
With CGCAUUUUCUCUCGAGCUUTT against Slc25a30 the z-score was inactive: -0.34.
In the case of GUUUACCUAGUCUUUGAAUTT against Qrich1, the z-score is reported as inactive: -0.373.
For GGACAAAGCUAUUGGGAUUTT against Olfr402, the z-score was inactive: 1.45.
For GGAAUUUUCUGGAAAUCCATT against Tctn2, the z-score was inactive: -0.111.
With GGAUGAUCUCUACAGUAUATT against Cckar the z-score was inactive: 0.233.
With GGACAAAAACAAGAUCCUCTT against Hspa2 the z-score was inactive: 1.56.
With GGGACCACGUCACUCUUAATT against Rab6b the z-score was inactive: 1.78.
For CGUAUUGUUCUCAAGCUAUTT against Rtp4, the z-score was inactive: 0.0893.
In the case of GGGUGAGUCCUAAAAAAAATT against Ntmt1, the z-score is reported as inactive: 0.918.
For CGUAGACUGAUAUAGCAAUTT against Irf5, the z-score was inactive: 0.033.
With “GCAGACUCAUGCACUUGAATT against Olfr1165-ps” the z-score was inactive: -0.321.
For GCUAGGUUGGAUAUAUAUGTT against Mypn, the z-score was inactive: -0.0247.
With “GCGUGAGUCCCAGAAGCUUTT against 2410018L13Rik” the z-score was inactive: -1.21.
With GCCUUUGAGGUUAUGAUCATT against Klk7 the z-score was inactive: -1.09.
In the case of CCUACAUUGAUCAUCUUUATT against Olfr901, the z-score is reported as inactive: -1.12.
With GCACCUGGUAAGGUCAUUCTT against Olfr545 the z-score was inactive: -1.18.
For GGAACACCGAACAUAAAUATT against Slc9c1, the z-score was inactive: 0.583.
With GGAACUGAUGGAGAAGCUATT against Tpcn2 the z-score was inactive: -0.604.
In the case of CGGAAAGUCCGGUUUCGAATT against Grxcr1, the z-score is reported as inactive: 0.156.
In the case of GGGAACCUACGAGGAUUAUTT against Myl6, the z-score is reported as inactive: 0.397.
For CCUUGUGGACUCUUUAAUUTT against Id2, the z-score was inactive: 1.1.
For GGAUCAACAUGGUCUCCUCTT against Stambpl1, the z-score was inactive: -1.63.
In the case of GGUAGUCUGAACACUCUAATT against Msto1, the z-score is reported as inactive: 0.427.
For GGCCGACCCGUUUUCUUUUTT against Nap1l4, the z-score was inactive: 0.594.
In the case of CGUGACUCGUUGUUUCUGGTT against Fyn, the z-score is reported as inactive: -1.62.
For CGGAAAAUUUGUUCCUGACTT against Rbm12b2, the z-score was inactive: 1.44.
For GGGCUAAGCACCUGAGAUCTT against Ugt2b38, the z-score was inactive: 1.33.
With GGACAUGAUCGACGACUACTT against Zfyve28 the z-score was inactive: 0.109.
With GCUCUUCUCGCAUUCCUAUTT against Gpc2 the z-score was inactive: -0.595.
For GCUAUUUGCUCAAAGCUGUTT against Sptbn2, the z-score was inactive: 0.0521.
In the case of GCACAGGACUGAUGCUAAGTT against Wdr91, the z-score is reported as active: 2.92.
For GGCCAUGUUGCAUCAGUUGTT against Kif27, the z-score was inactive: 0.438.
With GGUGUGAGAUCGAAUCAGATT against Arhgef18 the z-score was inactive: 0.503.
With GGUGCAUUUAAAAAAGCUGTT against Olfr1448 the z-score was inactive: 0.146.
In the case of CGCACAAGAGUGGUUCGAATT against Sytl1, the z-score is reported as inactive: 0.554.
With “UUCCUUUUCUUCAUGCUUUTT against Olfr104-ps” the z-score was inactive: 0.453.
For GAGAAGAAAAAAUGCAGUGTT against Olfr825, the z-score was inactive: 0.0375.
For GCUCUAUAGGCGAGCAUAGTT against Rhox11, the z-score was inactive: -1.54.
For GGAUUUCCCUAAAAAACACTT against Tbl2, the z-score was inactive: -0.929.
With CCAAGUCUCGUGUGAAAGATT against Nefh the z-score was inactive: -0.831.
With GGAGAAAAAUCAUCUUAUCTT against Tead1 the z-score was inactive: 0.772.
